Measured values: the supplement of paper PMC11348887
Where a name gives a salt, the structure may show the parent alone. Some of the results follow. Most entries show no effect beyond the scatter of the controls.

The compounds below were run on hPSC-derived cortical neurons (WA09) (assay: nucleus roundness z-score vs screen plate; higher = rounder nuclei (more mature)). Conditions: 5 µM; treatment: days 7-14 after plating, readout day 21.

Structure (SMILES) | nucleus roundness z-score
C[C@@H](O[C@H]1OCCN(Cc2nn(P(=O)(O)O)c(=O)[nH]2)[C@H]1c1ccc(F)cc1)c1cc(C(F)(F)F)cc(C(F)(F)F)c1 [Fosaprepitant dimeglumine salt] | -2.25
CCOC(=O)CC(=O)N1CCSC1COc1ccccc1OC (stereo not given) [Moguisteine] | -0.431
CCOP(=O)(OCC)C(=Cc1cc(C(C)(C)C)c(O)c(C(C)(C)C)c1)P(=O)(OCC)OCC | 0.787
CC(C)NCC(O)COc1ccc(CCOCC2CC2)cc1 (stereo not given) [Betaxolol HCl] | 0.169
O=C(Nc1ccncc1)c1cc([N+](=O)[O-])ccc1Cl | -0.762
N[C@H]1C[C@@H]1c1ccc(-c2cccc(O)c2)cc1 | 0.828
Clc1ccccc1C(c1ccccc1)(c1ccccc1)n1ccnc1 [Clotrimazole] | 0.184
Cc1cn(-c2cc(NC(=O)c3ccc(C)c(Nc4nccc(-c5cccnc5)n4)c3)cc(C(F)(F)F)c2)cn1 [Nilotinib (AMN-107)] | -1.79
CC(C)NC[C@@H](O)COc1ccc(CC(N)=O)cc1 [(R)-(+)-Atenolol HCl] | 0.0773
OCC(O)CN1CCN(c2ccccc2)CC1 (stereo not given) [Dropropizine] | -0.0393
Cc1c(Cn2c(C)nc3c(C(=O)O)cc(N4CCOCC4)cc32)cccc1C(F)(F)F | 0.38
COc1ccc2c(c1)c(CC(=O)N1CCOCC1)c(C)n2C(=O)c1ccc(Cl)cc1 | 0.684
Cc1ccc(Cl)cc1N(CC(=O)Nc1c(F)cccc1F)S(C)(=O)=O | 0.128
CC(C)(C)c1cc(/C=C(\C#N)C(N)=S)cc(C(C)(C)C)c1O [Tyrphostin AG 879] | 0.331
Cc1nc2n(c(=O)c1CCN1CCC(c3noc4cc(F)ccc34)CC1)CCCC2 [Risperidone] | -0.407
CC/C(=C(\c1ccccc1)c1ccc(OCCN(C)C)cc1)c1ccccc1 [Tamoxifen Citrate] | -1.47
CN(C)Cc1ccc(S(=O)(=O)n2ccc(/C=C/C(=O)NO)c2)cc1 [Resminostat] | 0.628
Cn1sc(=O)n(Cc2ccccc2)c1=O | 0.145
CC1CCN(CC[C@H]2CCCN2S(=O)(=O)c2cccc(O)c2)CC1 | -0.614
CC(C)(O)[C@H]1CC[C@@](C)([C@H]2[C@@H](O)C[C@@]3(C)[C@@H]4C[C@H](O[C@@H]5O[C@H](CO)[C@@H](O)[C@H](O)[C@H]5O)[C@H]5C(C)(C)[C@@H](O[C@@H]6OC[C@@H](O)[C@H](O)[C@H]6O)CC[C@@]56C[C@@]46CC[C@]23C)O1 [Astragaloside A] | 0.953

Structure (SMILES) | nucleus roundness z-score
Cc1ccc(O)c([C@H](CCN(C(C)C)C(C)C)c2ccccc2)c1 [Tolterodine tartrate] | 0.125
CCNC(=O)C#Cc1ccc2c(C(=Nc3ccc(CN(C)C)cc3)c3ccccc3)c(O)[nH]c2c1 | -2.96
COc1ccc(-c2oc3c(CC=C(C)C)c(O[C@@H]4O[C@H](CO)[C@@H](O)[C@H](O)[C@H]4O)cc(O)c3c(=O)c2O[C@@H]2O[C@@H](C)[C@H](O)[C@@H](O)[C@H]2O)cc1 [Icariin] | -1.52
N#Cc1ccc(-c2csc(NN=C3CCCC3)n2)cc1 [Remodelin] | 0.257
O=[N+]([O-])c1cn2c(n1)OC[C@@H](OCc1ccc(OC(F)(F)F)cc1)C2 | 1.09
CN(C)C/C=C/C(=O)Nc1cc2c(Nc3ccc(F)c(Cl)c3)ncnc2cc1O[C@H]1CCOC1 [Afatinib (BIBW2992)] | 3.19
CC(=O)c1cc2c(o1)C(=O)c1ccccc1C2=O [Napabucasin] | 0.734
NC(=O)c1noc([C@H](CCCC2CCCCC2)CC(=O)NO)n1 | 0.697
Cc1nc(C#Cc2ccnc(Cl)c2)c(C)n1-c1ccc(OC(F)(F)F)cc1 | 0.308
Cc1ccc(C(=O)Nc2ccc(CN3CCN(C)CC3)c(C(F)(F)F)c2)cc1C#Cc1cnc2[nH]ncc2c1 | -5.22
Cc1cc(N2CCOCC2)cc2[nH]c(-c3c(NC[C@@H](O)c4cccc(Cl)c4)cc[nH]c3=O)nc12 | -0.114
COc1cc(/C=C/C(=O)CC(=O)/C=C/c2ccc(O)c(OC)c2)ccc1O [Curcumin] | 0.46
C=CCc1cc(OC)c(O)c(C(=O)NCCO)c1 [Alibendol] | 0.159
CC(C)(C)c1[nH]cnc1/C=c1\[nH]c(=O)/c(=C/c2ccccc2)[nH]c1=O [Plinabulin (NPI-2358)] | -0.858
Nc1ncnc2c1c(I)cn2[C@@H]1O[C@H](CO)[C@@H](O)[C@H]1O [5-Iodotubercidin] | -4.1
CN(C)CCC=C1c2ccccc2C=Cc2ccccc21 [Cyclobenzaprine HCl] | -0.0555
COc1cccc2c1C(=O)c1c(O)c3c(c(O)c1C2=O)C[C@@](O)(C(=O)CO)C[C@@H]3O[C@H]1C[C@H](N)[C@H](O[C@@H]2CCCCO2)[C@H](C)O1 [Pirarubicin] | -0.0453
CC1=C(CC(=O)O)c2cc(F)ccc2/C1=C\c1ccc([S+](C)[O-])cc1 (stereo not given) [Sulindac] | 1.15
O=C(O)CCC(=O)Nc1ccc(S(=O)(=O)Nc2nccs2)cc1 [Succinylsulfathiazole] | 0.402
Nc1nc2n[nH]nc2c(=O)[nH]1 [Azaguanine-8] | -0.851

Retrieved by structure from the entries so far:
Structure (SMILES) | nucleus roundness z-score
CN(C)C/C=C/C(=O)Nc1cc2c(Nc3ccc(F)c(Cl)c3)ncnc2cc1O[C@H]1CCOC1 [Afatinib (BIBW2992)] | 3.19
Cc1ccc(O)c([C@H](CCN(C(C)C)C(C)C)c2ccccc2)c1 [Tolterodine tartrate] | 0.125
